From PubChem BioAssay AID1508600 (Functional Genomics Laboratory (NCATS/FGL), 2020)
Out of some 53,000 sequences screened, about 3,700 (7%) were called active.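 The calls were made as follows: active = gene knockdowns whose robust z-score for IL-1 alpha signal is at least 2 or at most -2, so actives lie on both sides; inactive = the rest.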 The list shows a part of the results.

test: Components of the Cytosolic LPS Sensing Pathway: Gene Identification via Genome-wide siRNA Screen; settings: RAW264.7 macrophages, IL-1a HTRF, actives lie on both sides, screened at 100 nM (by protocol), cells primed 5 h with Pam3CSK4 first;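 also: robust z of the log signal after scaling to non-targeting control siRNA wells of the plate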
Outline: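 Knockdown: 100 nM siRNA, 48h, RAW264.7. Stimulation: Pam3CSK4 5 h, then LipidA via TransIT-TKO 24 h. Output: supernatant IL-1a HTRF, negative-control-normalized, log robust z-score; viability by CellTiter-Glo.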

| Sequence | z-score |
| --- | --- |
| GGUUGUAUCAGUGAAGACATT against Cyren | inactive: 0.465 |
| GGUGACCAAAAUGACUUGUTT against Slc39a3 | inactive: 0.0258 |
| GCGUGGACAAACUCUAUGATT against Gramd1b | inactive: -1.16 |
| CGGGAGGUGAAUAUCGAUUTT against Rgs8 | inactive: -0.282 |
| GGGAAUUUCGGCUGUUUUATT against Cts8 | inactive: 1.85 |
| CCAAUUGGGCACAUAGUCGTT against Ovgp1 | inactive: 0.19 |
| GGUGAUGGAGUACUUAUUGTT against Acadvl | inactive: -0.258 |
| GGCAAAGAUCAAGACUGUGTT against Arid4a | inactive: -1.74 |
| CGACUAAUAUGUCCCAGCUTT against Bend3 | inactive: -1.21 |
| CGAUGAAAUCAUCACUAUCTT against Cyfip1 | inactive: 0.331 |
| GGGUCCUCUUUAAAAGGCUTT against Smc6 | inactive: -1.1 |
| GGCUAAUGGUGCGUACAGATT against Cyp4a10 | inactive: 0.418 |
| GGUGCAUAGCAUACCCUAGTT against Hlf | inactive: -0.0656 |
| GGAACUAUUACCAUUCUGUTT against Dkk3 | inactive: -0.045 |
| GGGCACAUUCUCAAGACGUTT against Stx1b | inactive: 0.22 |
| GGUAUUUGCCAACCAAAACTT against Trerf1 | inactive: -0.415 |
| GCAUCACAGGCGAGUUUGUTT against Olfr11 | inactive: 0.431 |
| GGAAAUUUUGACCAAGACCTT against Apoc1 | inactive: -0.337 |
| GGUGGUUUUCAUGUUUCCCTT against Olfr574 | inactive: -1.48 |
| GGGAAGACUAUCUCGUGACTT against Aatk | inactive: -1.06 |
| GGUUCUCCACAUGGUGAAUTT against Aptx | inactive: 0.757 |
| CGCUCUCUGGAUUUAUCCATT against Agt | inactive: -0.359 |

| Sequence | z-score |
| --- | --- |
| GAAAUCCAAGAGCAAUGAGTT against H2-K1 | inactive: 0.668 |
| CGCAGCUGAAUAUGUGAAGTT against H2-M10.5 | inactive: 0.386 |
| GGAAAACCAACAAAGCAAATT against Pde10a | inactive: -0.692 |
| CGUGUUACAUCAUCAGUUCTT against Gjd2 | inactive: 1.6 |
| GGACCAAGUACCAGACUGATT against Krt34 | inactive: -0.167 |
| GGUGACGGUGUACGAGUUATT against Crybb3 | inactive: -0.0714 |
| GGAUAAUUCAAAGACUGGATT against A630091E08Rik | inactive: 0.411 |
| GGAGAAAGGAUUAUAGAUGTT against Klk7 | inactive: 0.202 |
| GGAGAACAGCACACUGAACTT against Trappc5 | inactive: 0.94 |
| GGACAUAAGACCAUCUCCCTT against Olfr49 | inactive: 1.81 |
| GCUGAGGCUGUGGAAACCATT against Nradd | inactive: 0.52 |
| GGAUACCAAGCAUCGGAAGTT against Tfap2e | inactive: -0.0352 |
| GGCACAGUUCUGGAAGAUGTT against Qtrt1 | inactive: -1.02 |
| GGAAAUAUGGACAAGAACATT against Tulp4 | inactive: 1.54 |
| GGAGGUCCAGGAUUUUAUATT against Styk1 | inactive: 1.12 |
| CCAUUGUUAGCCACAUACGTT against Acp5 | inactive: 1.74 |
| GGUCAUCAAGCAGUGCUAUTT against Ncstn | active: 4.32 |
| GCCAAUCGUAACUUGCUAATT against Arhgap19 | inactive: 0.865 |
| GGAAUUCAUGAAGAAGUCATT against Pdlim7 | inactive: -1.16 |
| GCCUGAGUAACUUUGAACATT against Rangrf | inactive: 0.138 |
| CCUAGUAACUAUCUACCUCTT against Sval3 | inactive: 0.232 |
| GCGCAACUAAAACAGAUUGTT against Eif2ak1 | active: 2.2 |

Retrieved one by one from above:

| Sequence | z-score |
| --- | --- |
| GGUUCUCCACAUGGUGAAUTT against Aptx | inactive: 0.757 |
| CGCUCUCUGGAUUUAUCCATT against Agt | inactive: -0.359 |

For reference, part of the list above.

| Sequence | z-score |
| --- | --- |
| GGAGAACAGCACACUGAACTT against Trappc5 | inactive: 0.94 |
| GGACAUAAGACCAUCUCCCTT against Olfr49 | inactive: 1.81 |

Following part:

| Sequence | z-score |
| --- | --- |
| GGUGAAAAACUGCUAAAUATT against Akr1cl | inactive: 1.62 |
| GGAACUGAAAGACCAGUAGTT against Rpl37a | inactive: 0.44 |
| GGAGGAAACUAUUAUGACATT against Crybg3 | inactive: -0.569 |
| GGGACUUAAGGAGAGAAAUTT against Nlrp4a | inactive: 1.57 |
| GCACAACAUCCCAGAUAAATT against Ankrd55 | inactive: 0.338 |
| CCUCCUCCAACCAUCAGUUTT against Olfr695 | inactive: 0.807 |
| GGGUAGCUUUUUUUAUAACTT against Tnfrsf11b | inactive: 1.37 |
| CCAAUCCGUGUAUUGGUUATT against Itgb5 | inactive: -0.243 |
| CCUGGAACAAUUUAACCAATT against Mcm6 | inactive: 0.112 |
| GGCAGUUAUUCAGAAUUGATT against Nfu1 | active: -2.2 |
| GGACCUUGGAGAAAUUAGGTT against Nupr1 | inactive: -1.08 |
| GGGCUUAACUAAAAGUAGUTT against Henmt1 | inactive: 0.227 |
| GGAGAGCUGGUUCAUCACUTT against Trp53inp1 | inactive: -0.731 |
| GGUCACCCUCAAGUACCCUTT against Thop1 | inactive: -0.188 |
| GGACAGAAUUUUACCCUAATT against Tenm3 | inactive: -1.89 |
| CGAGCUAAACUCAGGCUCUTT against Mxd4 | inactive: -0.896 |
| GGUCCUCGGUUACAGAAACTT against Cnr2 | inactive: -0.263 |
| GGAUAUUCAAAGUUACCAATT against Cacna1b | inactive: 0.513 |
| GGCAAGAAGGACAAUGAGUTT against Mb21d2 | active: -2.82 |
| GGAUGUUCAACUAAAAGUATT against Vps50 | inactive: 1.16 |
| GGUUAUGAAGAUUUCGUUGTT against Myl1 | inactive: 0.569 |
| GGCCUAAAUUAUAUUAGGATT against Nyx | inactive: 0.216 |

| Sequence | z-score |
| --- | --- |
| GGACUUUGAAGAACUAAGUTT against Tfrc | inactive: 1.01 |
| AUUACAUGAUGAGCUUGGUTT against Olfr804 | inactive: 0.513 |
| GGUGUGCGUCACCAAAAAATT against Gipc1 | inactive: -0.652 |
| CCAUGGUCACCUAUGUCCUTT against Tas2r129 | inactive: -0.652 |
| GGUGCAAUCAGGUAUUUCATT against Olfr917 | active: -2.26 |
| GGCAAAGUGGAUAAGCAAUTT against Dpp6 | inactive: -0.372 |
| CCAAUUACGCCUUUGUACCTT against Tnk2 | inactive: -1.97 |
| GACCCUCGGGCGGAUAAAATT against Nkx2-5 | inactive: -1.59 |
| GGACAACAUAUUCUGAUAATT against Stmnd1 | inactive: 1.68 |
| GCUGAACAUCUGGGAUGUATT against Arl2 | inactive: 1.02 |
| GGAACUCUGUAGUUUUCAATT against Dnajc16 | inactive: 1.96 |
| GGUAGCUACUCAUAUAUAGTT against E330037G11Rik | inactive: -0.252 |
| GGAAAAUUCAUCCUUAGUATT against Wdr61 | inactive: -0.086 |
| CCAUACAUAAAAAGCCGCCTT against Il1rl1 | inactive: 1.29 |
| GGAACUGAAGGCUCUCAUCTT against Calm5 | inactive: -0.182 |
| GGGCAACCCACAAUAAAAATT against B9d1 | inactive: -1.66 |
| GGUUAGUCUCUCCAGAAAGTT against Polg2 | inactive: -0.904 |
| GGACUACCUCACACUCUUCTT against Sigmar1 | inactive: 0.814 |
| GCAUAUCUGUUCAUGAUGATT against Cmya5 | inactive: 0.899 |
| GCAGCUCAGUUAUUGUCAGTT against Cyp20a1 | inactive: -0.85 |
| GGAUCAAGACAAAAAACUUTT against Arhgap17 | inactive: -0.17 |
| GGUUGCAUUGUAGGGUUGGTT against Olfr129 | inactive: 0.221 |

| Sequence | z-score |
| --- | --- |
| GGACAAUGGCCAUGUUUUATT against 2310030G06Rik | inactive: -0.588 |
| GCAAACCAGGGAAAAAGUGTT against Zc3h6 | inactive: 1.38 |
| GGGUUUCUGUGAGAGACAATT against Ube2f | inactive: 1.01 |
| GGAGCACUGAUUUGAUAGATT against Lynx1 | inactive: -0.123 |
| GGAGCACCUGAUUUAUCCCTT against Cfap52 | inactive: -1.52 |
| GGGUAUAAGGACAAACAUUTT against Atp10b | inactive: -0.648 |
| GGUUGAUUUCACAGAAGAATT against Iqgap1 | inactive: 0.37 |
| GGAUCAGAACUCGUUCCCGTT against Rsrc2 | inactive: -0.0796 |
| CACUGACCAAAUUAUCACCTT against Olfr763 | inactive: -1.46 |
| GGGCAAGGAAUUUAUUACATT against Map2k4 | inactive: 1.8 |
| CGAAACUGACCUCUACACUTT against Cnnm1 | inactive: -0.184 |
| CCACCAGGGAUCGUUAUAATT against Phyh | active: 2.25 |
| GCAUUGGACUCAUAAUUUUTT against Aadat | inactive: 0.0399 |
| GGCAGUUAUCUCCUAAUGCTT against Zfp934 | inactive: -0.383 |
| GGUUGGGAGACCCAAUCUGTT against Hyi | inactive: -1.49 |
| GGUGCAUAAUUUAAAGAUCTT against Otud7b | inactive: 0.561 |
| GGAUGAGUACACUGAAAGCTT against Nvl | inactive: 0.544 |
| UCCAAGCUGUUGUUUAUACTT against Acsl1 | inactive: -0.0655 |
| CCCAGAUACCUGGAAAACGTT against Fam189a1 | active: -2.17 |

In a second layout: entries from further up.
Sequence,z-score
GGGUAUAAGGACAAACAUUTT against Atp10b,inactive: -0.648
GCAUUGGACUCAUAAUUUUTT against Aadat,inactive: 0.0399
